Positions of bridges follow the written chain, without caps; N, C: chain ends. Residues, ends and D or L forms follow the SMILES beside them. Chains are numbered I, II in the order given.
Assay: CD spectroscopy
Assay type: physicochemical
Settings: 20 µM peptide; for R-value (ratio of molar ellipticity at 222 nm and 207 nm), 50% TFE: 10 mM phosphate buffer pH 7 with 50% TFE, 20 °C

Compound	R-value (ratio of molar ellipticity at 222 nm and 207 nm), phosphate buffer (10 mM phosphate buffer pH 7, 20 °C)	R-value (ratio of molar ellipticity at 222 nm and 207 nm), 50% TFE
CC[C@H](C)[C@H](NC(=O)[C@H](C)NC(=O)[C@@H](NC(=O)[C@H](CCC(N)=O)NC(=O)[C@@H]1CCCN1C(=O)[C@H](Cc1ccccc1)NC(=O)[C@@H](NC(=O)[C@H](Cc1c[nH]cn1)NC(=O)[C@H](Cc1ccccc1)NC(=O)[C@H](CCCCNC(=O)[C@H](C)NC(=O)[C@H](Cc1ccccc1)NC(=O)[C@H](CCCCN)NC(=O)[C@H](CCCNC(=N)N)NC(=O)[C@H](CCCCN)NC(=O)[C@H](CCCCN)NC(=O)[C@H](CCCCN)NC(=O)[C@@H]1CCCN1C(=O)[C@H](C)NC(=O)[C@H](CCCCN)NC(=O)[C@H](CCCNC(=N)N)NC(=O)[C@H](CCCCN)NC(=O)[C@@H](N)CCCCN)NC(=O)[C@H](CCC(=O)O)NC(=O)[C@H](CC(C)C)NC(=O)[C@H](CC(C)C)NC(=O)[C@H](CCC(=O)O)NC(=O)[C@H](C)NC(=O)[C@H](CC(C)C)NC(=O)[C@H](C)NC(=O)[C@H](CCC(=O)O)NC(=O)[C@H](CC(C)C)NC(=O)[C@H](CC(C)C)NC(=O)CN)[C@@H](C)O)[C@@H](C)O)C(=O)NCC(=O)N[C@H](C(=O)NCC(=O)N[C@@H](C)C(=O)N1CCC[C@H]1C(N)=O)C(C)C [N-E5L-hCT(18-32)-k7] (I: H-GLLEALAELLEKFHTFPQTAIGVGAP-NH2 / II: H-KKRKAPKKKRKFA; amide I:12-II:C; N-terminus assumed)	0.40	0.64
GLLEALAELLE [N-E5L, truncated, modified E5L-peptide; analogue of the HA fusion-peptide from the N-terminal region of the HA2 subunit]	–	0.68
